In publication PMC5741610:
No constants are given. Whether binding was seen depends on the method and setting. In cells and extracts the contact can be indirect. Some entries that bind do so weakly or less than the wild type.

Chains of the proteins cited; added tags and fusions are not shown.
UniProt P05627: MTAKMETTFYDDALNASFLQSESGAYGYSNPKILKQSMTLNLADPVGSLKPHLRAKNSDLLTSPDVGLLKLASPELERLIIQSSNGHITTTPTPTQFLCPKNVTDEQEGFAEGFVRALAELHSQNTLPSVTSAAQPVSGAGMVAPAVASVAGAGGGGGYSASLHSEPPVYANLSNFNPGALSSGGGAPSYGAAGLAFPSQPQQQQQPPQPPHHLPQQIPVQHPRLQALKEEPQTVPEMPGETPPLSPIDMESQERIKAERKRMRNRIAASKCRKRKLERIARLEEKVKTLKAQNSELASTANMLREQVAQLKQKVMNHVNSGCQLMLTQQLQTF
UniProt P42227: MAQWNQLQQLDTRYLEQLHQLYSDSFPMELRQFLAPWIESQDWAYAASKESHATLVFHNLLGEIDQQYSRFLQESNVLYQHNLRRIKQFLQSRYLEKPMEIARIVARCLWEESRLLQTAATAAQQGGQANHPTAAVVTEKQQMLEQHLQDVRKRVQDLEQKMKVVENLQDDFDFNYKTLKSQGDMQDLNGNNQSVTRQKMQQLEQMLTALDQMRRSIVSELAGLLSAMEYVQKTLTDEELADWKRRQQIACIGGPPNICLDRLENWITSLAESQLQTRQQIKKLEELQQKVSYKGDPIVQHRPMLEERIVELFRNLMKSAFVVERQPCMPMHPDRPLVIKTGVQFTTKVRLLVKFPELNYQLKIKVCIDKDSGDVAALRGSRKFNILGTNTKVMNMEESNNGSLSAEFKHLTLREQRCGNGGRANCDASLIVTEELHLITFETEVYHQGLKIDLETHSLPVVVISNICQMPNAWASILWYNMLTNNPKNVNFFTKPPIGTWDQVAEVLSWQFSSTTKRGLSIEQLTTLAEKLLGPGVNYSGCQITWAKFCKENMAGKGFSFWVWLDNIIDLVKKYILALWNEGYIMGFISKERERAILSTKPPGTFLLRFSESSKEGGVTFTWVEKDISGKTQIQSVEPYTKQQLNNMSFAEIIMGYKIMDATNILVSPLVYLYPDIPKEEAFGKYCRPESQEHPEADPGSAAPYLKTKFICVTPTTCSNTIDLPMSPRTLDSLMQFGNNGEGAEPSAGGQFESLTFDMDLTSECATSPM

T1: JUNB (mouse (endogenous in CD4+ T cells)) (UniProt P09450)
T1 sequence: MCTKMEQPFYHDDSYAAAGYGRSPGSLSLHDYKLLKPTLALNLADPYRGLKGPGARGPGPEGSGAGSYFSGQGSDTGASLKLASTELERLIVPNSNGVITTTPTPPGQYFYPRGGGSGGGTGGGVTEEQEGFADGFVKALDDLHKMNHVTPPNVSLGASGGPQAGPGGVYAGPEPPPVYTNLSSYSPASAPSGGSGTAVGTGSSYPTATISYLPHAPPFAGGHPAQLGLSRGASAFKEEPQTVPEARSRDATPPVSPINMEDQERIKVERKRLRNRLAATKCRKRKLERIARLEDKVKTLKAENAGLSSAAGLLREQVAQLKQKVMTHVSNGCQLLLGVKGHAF

B1: Fos-related antigen 1 (FRA1) (protein, UniProt P48755 1-273)
chain: MYRDYGEPGPSSGAGSPYGRPAQPPQAQAQTAQQQKFHLVPSIDSSSQELHWMVQPHFLGPTGYPRPLAYPQYSPPQPRPGVIRALGPPPGVRRRPCEQISPEEEERRRVRRERNKLAAAKCRNRRKELTDFLQAETDKLEDEKSGLQREIEELQKQKERLELVLEAHRPICKIPEGDKKDPGGSGSTSGASSPPAPGRPVPCISLSPGPVLEPEALHTPTLMTTPSLTPFTPSLVFTYPSTPEPCSSAHRKSSSSSGDPSSDPLGSPTLLAL
B2: phospho-FRA1 (protein, UniProt P48755 1-273)
chain: B1 chain
modifications: phosphorylated (detected with anti-phospho-FRA1 antibody; residue not stated)
B3: phospho-JUNB (protein, UniProt P09450 1-344)
chain: T1 sequence
modifications: phosphorylated (detected with anti-phospho-JUNB antibody; residue not stated)

Assays:
[1] = target: T1, JUNB (mouse (endogenous in CD4+ T cells)); assay: co-IP; lysates of CD4+ T cells cultured under Th17-polarizing conditions; precipitated with anti-JUNB and anti-c-JUN antibodies, immunoblot with anti-FRA1, anti-c-FOS and anti-FOSB
[2] = target: c-JUN (mouse (endogenous in CD4+ T cells)) (UniProt P05627); assay: as above
[3] = target: Signal transducer and activator of transcription 3 (STAT3), phosphorylated at Y705 (mouse (endogenous in CD4+ T cells)) (UniProt P42227); assay: co-IP; lysates of CD4+ T cells cultured under Th0- or Th17-polarizing conditions for 3 days; precipitated with anti-phospho-STAT3^Y705 antibody, immunoblot with anti-phospho-FRA1 or anti-phospho-JUNB (the text tells the reverse: anti-FRA1 and anti-JUNB precipitation, STAT3 blot)

| Binder | binding [1] | binding [2] | binding [3] |
| --- | --- | --- | --- |
| B1 | binds | no binding | – |
| B2 | – | – | binds |
| B3 | – | – | binds |
